# Assay results reported in the supplement of paper PMC12823440, “Inhibitors supercharge kinase turnover through native proteolytic circuits” (Nature, 2025).
# Chains of the proteins cited; added tags and fusions are not shown. Lines headed by an entry give the natural chain unless they say otherwise; changes in a name come on top.
# UniProt Q15208: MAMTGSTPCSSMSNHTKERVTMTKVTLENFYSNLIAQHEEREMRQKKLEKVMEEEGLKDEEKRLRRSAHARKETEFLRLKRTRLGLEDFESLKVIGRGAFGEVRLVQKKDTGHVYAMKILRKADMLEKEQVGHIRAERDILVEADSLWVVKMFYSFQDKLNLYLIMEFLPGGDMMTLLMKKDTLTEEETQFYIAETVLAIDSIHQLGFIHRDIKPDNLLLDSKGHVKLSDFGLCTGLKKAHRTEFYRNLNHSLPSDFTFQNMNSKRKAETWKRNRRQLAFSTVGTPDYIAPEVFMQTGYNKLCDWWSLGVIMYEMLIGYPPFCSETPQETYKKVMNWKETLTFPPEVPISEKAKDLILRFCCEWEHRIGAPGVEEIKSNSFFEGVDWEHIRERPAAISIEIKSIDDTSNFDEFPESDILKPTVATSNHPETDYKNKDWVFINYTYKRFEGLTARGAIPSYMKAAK
# UniProt P42680: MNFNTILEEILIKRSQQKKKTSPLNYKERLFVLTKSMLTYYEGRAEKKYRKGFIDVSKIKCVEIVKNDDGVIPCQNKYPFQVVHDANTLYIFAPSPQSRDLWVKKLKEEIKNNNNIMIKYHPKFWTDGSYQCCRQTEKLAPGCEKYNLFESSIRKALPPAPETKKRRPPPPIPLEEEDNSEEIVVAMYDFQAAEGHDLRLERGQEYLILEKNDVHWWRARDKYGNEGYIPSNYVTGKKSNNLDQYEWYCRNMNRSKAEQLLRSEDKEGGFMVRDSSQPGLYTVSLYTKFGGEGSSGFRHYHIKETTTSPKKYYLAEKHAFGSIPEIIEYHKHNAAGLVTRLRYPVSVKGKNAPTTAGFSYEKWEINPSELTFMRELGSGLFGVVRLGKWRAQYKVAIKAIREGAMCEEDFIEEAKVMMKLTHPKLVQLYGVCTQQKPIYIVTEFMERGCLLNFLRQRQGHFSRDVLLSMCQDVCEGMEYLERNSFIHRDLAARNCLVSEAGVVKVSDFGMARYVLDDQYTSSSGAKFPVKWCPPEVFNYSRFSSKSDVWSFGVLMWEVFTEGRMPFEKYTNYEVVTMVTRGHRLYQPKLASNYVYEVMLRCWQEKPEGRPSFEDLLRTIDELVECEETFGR
# UniProt P29597: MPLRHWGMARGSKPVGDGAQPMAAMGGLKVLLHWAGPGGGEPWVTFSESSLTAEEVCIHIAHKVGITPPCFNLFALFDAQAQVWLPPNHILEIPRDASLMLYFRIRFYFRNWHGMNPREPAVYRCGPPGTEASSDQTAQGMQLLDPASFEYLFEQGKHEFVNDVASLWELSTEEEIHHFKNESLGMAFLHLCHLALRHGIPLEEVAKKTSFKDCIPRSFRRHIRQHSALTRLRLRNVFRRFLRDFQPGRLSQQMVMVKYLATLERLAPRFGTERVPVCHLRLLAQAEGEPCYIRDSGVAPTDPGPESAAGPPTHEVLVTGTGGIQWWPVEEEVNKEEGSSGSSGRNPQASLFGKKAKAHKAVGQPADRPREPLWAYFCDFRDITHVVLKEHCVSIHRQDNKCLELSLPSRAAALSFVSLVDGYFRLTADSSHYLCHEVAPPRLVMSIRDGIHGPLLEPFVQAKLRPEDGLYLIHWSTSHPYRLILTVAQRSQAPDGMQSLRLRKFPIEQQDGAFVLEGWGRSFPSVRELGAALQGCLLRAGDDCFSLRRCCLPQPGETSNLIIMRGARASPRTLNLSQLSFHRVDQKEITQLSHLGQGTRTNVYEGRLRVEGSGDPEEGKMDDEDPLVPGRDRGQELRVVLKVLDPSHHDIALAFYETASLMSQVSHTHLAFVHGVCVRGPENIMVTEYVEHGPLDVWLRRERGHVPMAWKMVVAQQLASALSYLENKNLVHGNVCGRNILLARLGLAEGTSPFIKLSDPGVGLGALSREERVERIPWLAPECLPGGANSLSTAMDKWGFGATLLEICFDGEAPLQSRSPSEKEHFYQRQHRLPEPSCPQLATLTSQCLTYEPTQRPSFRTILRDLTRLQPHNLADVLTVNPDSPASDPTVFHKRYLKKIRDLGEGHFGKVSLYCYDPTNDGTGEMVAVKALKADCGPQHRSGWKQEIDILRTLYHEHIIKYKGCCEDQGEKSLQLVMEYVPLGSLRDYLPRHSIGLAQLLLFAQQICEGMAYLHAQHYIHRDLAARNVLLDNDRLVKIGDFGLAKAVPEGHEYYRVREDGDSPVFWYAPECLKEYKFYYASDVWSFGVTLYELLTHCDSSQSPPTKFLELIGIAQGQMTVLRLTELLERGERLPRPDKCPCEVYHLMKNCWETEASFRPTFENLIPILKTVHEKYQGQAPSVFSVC
# UniProt Q6PHR2: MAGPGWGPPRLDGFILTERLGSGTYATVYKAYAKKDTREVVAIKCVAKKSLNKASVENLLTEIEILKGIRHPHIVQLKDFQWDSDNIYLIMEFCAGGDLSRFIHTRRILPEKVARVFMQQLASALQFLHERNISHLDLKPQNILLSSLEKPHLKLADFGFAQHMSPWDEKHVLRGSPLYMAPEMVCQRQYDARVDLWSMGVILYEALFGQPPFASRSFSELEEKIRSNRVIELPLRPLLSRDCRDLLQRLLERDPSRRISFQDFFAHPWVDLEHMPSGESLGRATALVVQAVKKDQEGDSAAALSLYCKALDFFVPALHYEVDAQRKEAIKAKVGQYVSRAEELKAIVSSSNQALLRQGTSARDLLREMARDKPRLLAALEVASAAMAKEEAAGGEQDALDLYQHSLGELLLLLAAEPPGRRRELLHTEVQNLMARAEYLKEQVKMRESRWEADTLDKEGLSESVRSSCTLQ
# UniProt P07947, whole entry, looked up: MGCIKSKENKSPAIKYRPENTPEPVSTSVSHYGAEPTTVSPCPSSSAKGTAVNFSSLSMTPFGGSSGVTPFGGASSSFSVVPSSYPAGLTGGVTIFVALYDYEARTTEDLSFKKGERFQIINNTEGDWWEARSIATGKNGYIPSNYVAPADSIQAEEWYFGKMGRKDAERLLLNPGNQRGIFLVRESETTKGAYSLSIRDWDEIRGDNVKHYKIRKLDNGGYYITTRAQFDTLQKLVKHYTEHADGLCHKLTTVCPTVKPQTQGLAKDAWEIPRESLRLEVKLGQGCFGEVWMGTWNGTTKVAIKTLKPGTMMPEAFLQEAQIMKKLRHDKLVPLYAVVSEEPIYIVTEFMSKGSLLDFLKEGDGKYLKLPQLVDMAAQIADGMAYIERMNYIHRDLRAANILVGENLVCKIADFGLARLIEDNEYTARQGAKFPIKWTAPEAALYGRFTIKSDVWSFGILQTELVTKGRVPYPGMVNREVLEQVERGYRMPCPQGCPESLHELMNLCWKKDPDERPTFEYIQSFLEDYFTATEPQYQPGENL
# UniProt P43403: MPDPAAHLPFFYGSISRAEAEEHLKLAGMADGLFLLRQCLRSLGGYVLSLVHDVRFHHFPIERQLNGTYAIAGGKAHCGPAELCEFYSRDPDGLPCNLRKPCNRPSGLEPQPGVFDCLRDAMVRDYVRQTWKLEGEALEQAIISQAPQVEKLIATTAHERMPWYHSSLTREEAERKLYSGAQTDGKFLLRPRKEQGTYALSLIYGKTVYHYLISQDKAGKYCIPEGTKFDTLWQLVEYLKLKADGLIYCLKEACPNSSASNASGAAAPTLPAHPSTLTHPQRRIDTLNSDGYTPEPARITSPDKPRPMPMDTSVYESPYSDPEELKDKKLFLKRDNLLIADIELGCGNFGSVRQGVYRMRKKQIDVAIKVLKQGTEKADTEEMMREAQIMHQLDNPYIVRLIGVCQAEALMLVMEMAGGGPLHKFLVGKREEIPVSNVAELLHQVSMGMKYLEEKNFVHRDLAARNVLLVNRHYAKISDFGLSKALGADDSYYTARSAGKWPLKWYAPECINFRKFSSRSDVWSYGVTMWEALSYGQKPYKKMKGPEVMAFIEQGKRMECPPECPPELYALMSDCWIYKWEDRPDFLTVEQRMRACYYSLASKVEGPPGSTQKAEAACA
# UniProt P11802: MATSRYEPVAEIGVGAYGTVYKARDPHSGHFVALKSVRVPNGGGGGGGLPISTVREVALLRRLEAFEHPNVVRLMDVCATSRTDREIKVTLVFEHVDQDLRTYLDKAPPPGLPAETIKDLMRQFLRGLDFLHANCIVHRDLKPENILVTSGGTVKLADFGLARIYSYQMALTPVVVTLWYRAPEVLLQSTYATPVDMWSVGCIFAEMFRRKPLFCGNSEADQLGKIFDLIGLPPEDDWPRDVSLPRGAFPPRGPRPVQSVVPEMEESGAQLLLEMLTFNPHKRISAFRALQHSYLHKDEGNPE
# UniProt P50613: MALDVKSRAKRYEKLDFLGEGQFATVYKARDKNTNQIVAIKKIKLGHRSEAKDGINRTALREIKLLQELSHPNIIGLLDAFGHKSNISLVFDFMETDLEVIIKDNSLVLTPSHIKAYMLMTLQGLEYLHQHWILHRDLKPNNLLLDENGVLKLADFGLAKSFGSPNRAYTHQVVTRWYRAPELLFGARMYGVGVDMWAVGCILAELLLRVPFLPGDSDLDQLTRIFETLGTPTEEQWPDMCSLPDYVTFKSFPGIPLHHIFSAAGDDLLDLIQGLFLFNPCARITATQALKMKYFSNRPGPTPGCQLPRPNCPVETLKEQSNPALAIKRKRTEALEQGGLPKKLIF
# UniProt P50750, whole entry: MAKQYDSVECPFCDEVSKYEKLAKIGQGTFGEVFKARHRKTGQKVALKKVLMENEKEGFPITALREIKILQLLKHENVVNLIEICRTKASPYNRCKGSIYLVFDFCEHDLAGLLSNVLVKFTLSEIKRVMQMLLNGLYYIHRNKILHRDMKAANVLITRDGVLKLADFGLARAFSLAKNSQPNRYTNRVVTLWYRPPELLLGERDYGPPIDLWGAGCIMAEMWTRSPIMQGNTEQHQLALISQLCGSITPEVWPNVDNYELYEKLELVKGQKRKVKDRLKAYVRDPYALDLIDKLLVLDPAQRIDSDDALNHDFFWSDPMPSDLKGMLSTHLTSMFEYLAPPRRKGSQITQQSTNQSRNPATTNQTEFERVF
# Structures can show the parent of a compound that is named as a salt. Some of the results follow. The calls rarely recur for the same compound in another form.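 Kinases were expressed as nanoluciferase fusions in K562 cells and luminescence was read every 4 h between 2 and 18 h as percent of control, DMSO set to 100% and a positive control to 0%. A time point counts as decreased when the signal drops significantly (2 sigma). The hit call is the authors' own, does not follow from the count of time points alone, and its rule is not shown.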
# Assays:
# Conditions in all cases: K562, 2-18 h
# STK38 = STK38 (UniProt Q15208); test: kinase-Nluc reporter destabilization hit call (1 = scored as downregulated) (binary); higher = compound decreases kinase abundance
# SYK = SYK (UniProt P43405); test: as above
# TEC = TEC (UniProt P42680); test: as above
# TYK2 = TYK2 (UniProt P29597); test: as above
# ULK3 = ULK3 (UniProt Q6PHR2); test: as above
# YES1 = YES1 (UniProt P07947); test: as above
# ZAK = ZAK (UniProt Q9NYL2); test: as above
# ZAP70 = ZAP70 (UniProt P43403); test: as above
# CDK4 = CDK4 (UniProt P11802); test: number of time points (of 4; 2 h point missing) at which kinase-Nluc abundance scored as decreased, DMSO-normalised (count); higher = more persistent destabilization
# CDK7 = CDK7 (UniProt P50613); test: as above
# CDK9 = CDK9 (UniProt P50750); test: as above
smiles,measurement,setting,value
Cc1cccc(-c2[nH]c(CNc3ccccc3F)nc2-c2ccc3ncnn3c2)n1 [Vactosertib],kinase-Nluc reporter destabilization hit call,STK38; 2.5 µM,inactive: 0
same,kinase-Nluc reporter destabilization hit call,SYK; 2.5 µM,inactive: 0
same,kinase-Nluc reporter destabilization hit call,TEC; 2.5 µM,inactive: 0
same,kinase-Nluc reporter destabilization hit call,TYK2; 2.5 µM,inactive: 0
same,kinase-Nluc reporter destabilization hit call,ULK3; 2.5 µM,inactive: 0
same,kinase-Nluc reporter destabilization hit call,YES1; 2.5 µM,inactive: 0
same,kinase-Nluc reporter destabilization hit call,ZAK; 2.5 µM,inactive: 0
same,kinase-Nluc reporter destabilization hit call,ZAP70; 2.5 µM,inactive: 0
same,number of time points,CDK4; 2.5 µM,0
same,number of time points,CDK7; 2.5 µM,0
same,number of time points,CDK9; 2.5 µM,0
Cc1[nH]c(/C=C2\C(=O)Nc3ccc(F)cc32)c(C)c1C(=O)NCCN1CCCC1 [Toceranib (phosphate)],kinase-Nluc reporter destabilization hit call,STK38; 2 µM,inactive: 0
same,kinase-Nluc reporter destabilization hit call,SYK; 2 µM,inactive: 0
same,kinase-Nluc reporter destabilization hit call,TEC; 2 µM,inactive: 0
same,kinase-Nluc reporter destabilization hit call,TYK2; 2 µM,inactive: 0
same,kinase-Nluc reporter destabilization hit call,ULK3; 2 µM,inactive: 0
same,kinase-Nluc reporter destabilization hit call,YES1; 2 µM,inactive: 0
same,kinase-Nluc reporter destabilization hit call,ZAK; 2 µM,inactive: 0
same,kinase-Nluc reporter destabilization hit call,ZAP70; 2 µM,inactive: 0
same,number of time points,CDK4; 2 µM,0
same,number of time points,CDK7; 2 µM,0
same,number of time points,CDK9; 2 µM,0
CNC(=O)c1ccc(Nc2ncc(C(F)(F)F)c(NCc3nccnc3N(C)S(C)(=O)=O)n2)cc1 [Defactinib],kinase-Nluc reporter destabilization hit call,STK38; 10 µM,inactive: 0
same,kinase-Nluc reporter destabilization hit call,SYK; 10 µM,inactive: 0
same,kinase-Nluc reporter destabilization hit call,TEC; 10 µM,inactive: 0
same,kinase-Nluc reporter destabilization hit call,TYK2; 10 µM,inactive: 0
same,kinase-Nluc reporter destabilization hit call,ULK3; 10 µM,inactive: 0
same,kinase-Nluc reporter destabilization hit call,YES1; 10 µM,inactive: 0
same,kinase-Nluc reporter destabilization hit call,ZAK; 10 µM,inactive: 0
same,kinase-Nluc reporter destabilization hit call,ZAP70; 10 µM,inactive: 0
same,number of time points,CDK4; 10 µM,0
same,number of time points,CDK7; 10 µM,0
same,number of time points,CDK9; 10 µM,0
CN1CCCN(C(=O)c2cccc(-c3ccc(/C=C4/C(=O)Nc5ccc(Cl)cc54)o3)c2)CC1,kinase-Nluc reporter destabilization hit call,STK38; 2.5 µM,inactive: 0
same,kinase-Nluc reporter destabilization hit call,SYK; 2.5 µM,inactive: 0
same,kinase-Nluc reporter destabilization hit call,TEC; 2.5 µM,inactive: 0
same,kinase-Nluc reporter destabilization hit call,TYK2; 2.5 µM,inactive: 0
same,kinase-Nluc reporter destabilization hit call,ULK3; 2.5 µM,inactive: 0
same,kinase-Nluc reporter destabilization hit call,YES1; 2.5 µM,inactive: 0
same,kinase-Nluc reporter destabilization hit call,ZAK; 2.5 µM,inactive: 0
same,kinase-Nluc reporter destabilization hit call,ZAP70; 2.5 µM,inactive: 0
same,number of time points,CDK4; 2.5 µM,0
same,number of time points,CDK7; 2.5 µM,1
same,number of time points,CDK9; 2.5 µM,0
COc1cc2nccc(Oc3ccc(NC(=O)C4(C(=O)Nc5ccc(F)cc5)CC4)cc3)c2cc1OC [Cabozantinib],kinase-Nluc reporter destabilization hit call,STK38; 2.5 µM,inactive: 0
same,kinase-Nluc reporter destabilization hit call,SYK; 2.5 µM,inactive: 0
same,kinase-Nluc reporter destabilization hit call,TEC; 2.5 µM,inactive: 0
same,kinase-Nluc reporter destabilization hit call,TYK2; 2.5 µM,inactive: 0
same,kinase-Nluc reporter destabilization hit call,ULK3; 2.5 µM,inactive: 0
same,kinase-Nluc reporter destabilization hit call,YES1; 2.5 µM,inactive: 0
same,kinase-Nluc reporter destabilization hit call,ZAK; 2.5 µM,inactive: 0
same,kinase-Nluc reporter destabilization hit call,ZAP70; 2.5 µM,inactive: 0
same,number of time points,CDK4; 2.5 µM,0
same,number of time points,CDK7; 2.5 µM,3
same,number of time points,CDK9; 2.5 µM,1
CC(=O)c1c(C)c2cnc(Nc3ccc(N4CCNCC4)cn3)nc2n(C2CCCC2)c1=O [Palbociclib (isethionate)],kinase-Nluc reporter destabilization hit call,STK38; 10 µM,inactive: 0
same,kinase-Nluc reporter destabilization hit call,SYK; 10 µM,inactive: 0
same,kinase-Nluc reporter destabilization hit call,TEC; 10 µM,inactive: 0
same,kinase-Nluc reporter destabilization hit call,TYK2; 10 µM,inactive: 0
same,kinase-Nluc reporter destabilization hit call,ULK3; 10 µM,inactive: 0
same,kinase-Nluc reporter destabilization hit call,YES1; 10 µM,inactive: 0
same,kinase-Nluc reporter destabilization hit call,ZAK; 10 µM,inactive: 0
same,kinase-Nluc reporter destabilization hit call,ZAP70; 10 µM,inactive: 0
same,number of time points,CDK4; 10 µM,0
same,number of time points,CDK7; 10 µM,0
same,number of time points,CDK9; 10 µM,0
Cn1ncc(Cl)c1-c1cc(C(=O)N[C@H](CN)Cc2cccc(F)c2)sc1Cl [Afuresertib (hydrochloride)],kinase-Nluc reporter destabilization hit call,STK38; 10 µM,inactive: 0
same,kinase-Nluc reporter destabilization hit call,SYK; 10 µM,inactive: 0
same,kinase-Nluc reporter destabilization hit call,TEC; 10 µM,inactive: 0
same,kinase-Nluc reporter destabilization hit call,TYK2; 10 µM,inactive: 0
same,kinase-Nluc reporter destabilization hit call,ULK3; 10 µM,inactive: 0
same,kinase-Nluc reporter destabilization hit call,YES1; 10 µM,inactive: 0
same,kinase-Nluc reporter destabilization hit call,ZAK; 10 µM,inactive: 0
same,kinase-Nluc reporter destabilization hit call,ZAP70; 10 µM,inactive: 0
same,number of time points,CDK4; 10 µM,0
same,number of time points,CDK7; 10 µM,0
same,number of time points,CDK9; 10 µM,0
COc1cc2c(-c3cnn4cc(N5CCC(N6CCN(C)CC6)CC5)cnc34)ccnc2cc1F,kinase-Nluc reporter destabilization hit call,STK38; 10 µM,inactive: 0
same,kinase-Nluc reporter destabilization hit call,SYK; 10 µM,inactive: 0
same,kinase-Nluc reporter destabilization hit call,TEC; 10 µM,inactive: 0
same,kinase-Nluc reporter destabilization hit call,TYK2; 10 µM,inactive: 0
same,kinase-Nluc reporter destabilization hit call,ULK3; 10 µM,inactive: 0
same,kinase-Nluc reporter destabilization hit call,YES1; 10 µM,inactive: 0
same,kinase-Nluc reporter destabilization hit call,ZAK; 10 µM,inactive: 0
same,kinase-Nluc reporter destabilization hit call,ZAP70; 10 µM,inactive: 0
same,number of time points,CDK4; 10 µM,0
same,number of time points,CDK7; 10 µM,0
same,number of time points,CDK9; 10 µM,0
CC(=O)Nc1cccc(-n2c(=O)n(C3CC3)c(=O)c3c(Nc4ccc(I)cc4F)n(C)c(=O)c(C)c32)c1 [Trametinib (DMSO solvate)],kinase-Nluc reporter destabilization hit call,STK38; 10 µM,inactive: 0
same,kinase-Nluc reporter destabilization hit call,SYK; 10 µM,inactive: 0
same,kinase-Nluc reporter destabilization hit call,TEC; 10 µM,inactive: 0
same,kinase-Nluc reporter destabilization hit call,TYK2; 10 µM,inactive: 0
same,kinase-Nluc reporter destabilization hit call,ULK3; 10 µM,inactive: 0
same,kinase-Nluc reporter destabilization hit call,YES1; 10 µM,inactive: 0
same,kinase-Nluc reporter destabilization hit call,ZAK; 10 µM,inactive: 0
same,kinase-Nluc reporter destabilization hit call,ZAP70; 10 µM,inactive: 0
same,number of time points,CDK4; 10 µM,0
same,number of time points,CDK7; 10 µM,0
same,number of time points,CDK9; 10 µM,1
COc1ccc(S(=O)(=O)N(CCO)c2ccccc2CN(C)C/C=C/c2ccc(Cl)cc2)cc1 [KN-93 (hydrochloride)],kinase-Nluc reporter destabilization hit call,STK38; 2.5 µM,inactive: 0
same,kinase-Nluc reporter destabilization hit call,SYK; 2.5 µM,inactive: 0
same,kinase-Nluc reporter destabilization hit call,TEC; 2.5 µM,inactive: 0
same,kinase-Nluc reporter destabilization hit call,TYK2; 2.5 µM,inactive: 0
same,kinase-Nluc reporter destabilization hit call,ULK3; 2.5 µM,inactive: 0
same,kinase-Nluc reporter destabilization hit call,YES1; 2.5 µM,inactive: 0
same,kinase-Nluc reporter destabilization hit call,ZAK; 2.5 µM,inactive: 0
same,kinase-Nluc reporter destabilization hit call,ZAP70; 2.5 µM,inactive: 0
same,number of time points,CDK4; 2.5 µM,0
same,number of time points,CDK7; 2.5 µM,0
same,number of time points,CDK9; 2.5 µM,0
C=CC(=O)Nc1cc(Nc2nccc(-c3cn(C)c4ccccc34)n2)c(OC)cc1N(C)CCN(C)C [Osimertinib mesylate],kinase-Nluc reporter destabilization hit call,STK38; 2.5 µM,inactive: 0
same,kinase-Nluc reporter destabilization hit call,SYK; 2.5 µM,inactive: 0
same,kinase-Nluc reporter destabilization hit call,TEC; 2.5 µM,inactive: 0
same,kinase-Nluc reporter destabilization hit call,TYK2; 2.5 µM,inactive: 0
same,kinase-Nluc reporter destabilization hit call,ULK3; 2.5 µM,inactive: 0
same,kinase-Nluc reporter destabilization hit call,YES1; 2.5 µM,inactive: 0
same,kinase-Nluc reporter destabilization hit call,ZAK; 2.5 µM,inactive: 0
same,kinase-Nluc reporter destabilization hit call,ZAP70; 2.5 µM,inactive: 0
same,number of time points,CDK4; 2.5 µM,0
same,number of time points,CDK7; 2.5 µM,1
same,number of time points,CDK9; 2.5 µM,0
O=C(c1nn(-c2ccc(CN3CCOCC3)cc2)c2c1CS(=O)(=O)c1c(F)cccc1-2)N1CCOCC1,kinase-Nluc reporter destabilization hit call,STK38; 10 µM,inactive: 0
same,kinase-Nluc reporter destabilization hit call,SYK; 10 µM,inactive: 0
same,kinase-Nluc reporter destabilization hit call,TEC; 10 µM,inactive: 0
same,kinase-Nluc reporter destabilization hit call,TYK2; 10 µM,inactive: 0
same,kinase-Nluc reporter destabilization hit call,ULK3; 10 µM,inactive: 0
same,kinase-Nluc reporter destabilization hit call,YES1; 10 µM,inactive: 0
same,kinase-Nluc reporter destabilization hit call,ZAK; 10 µM,inactive: 0
same,kinase-Nluc reporter destabilization hit call,ZAP70; 10 µM,inactive: 0
same,number of time points,CDK4; 10 µM,0
same,number of time points,CDK7; 10 µM,0
same,number of time points,CDK9; 10 µM,0
Oc1cccc(-c2nc(N3CCOCC3)c3oc4ncccc4c3n2)c1,kinase-Nluc reporter destabilization hit call,STK38; 10 µM,inactive: 0
same,kinase-Nluc reporter destabilization hit call,SYK; 10 µM,inactive: 0
same,kinase-Nluc reporter destabilization hit call,TEC; 10 µM,inactive: 0
same,kinase-Nluc reporter destabilization hit call,TYK2; 10 µM,inactive: 0
same,kinase-Nluc reporter destabilization hit call,ULK3; 10 µM,inactive: 0
same,kinase-Nluc reporter destabilization hit call,YES1; 10 µM,inactive: 0
same,kinase-Nluc reporter destabilization hit call,ZAK; 10 µM,inactive: 0
same,kinase-Nluc reporter destabilization hit call,ZAP70; 10 µM,inactive: 0
same,number of time points,CDK4; 10 µM,0
same,number of time points,CDK7; 10 µM,0
same,number of time points,CDK9; 10 µM,1
C=CC(=O)Nc1cc2c(Nc3ccc(F)c(Cl)c3)ncnc2cc1C#CC(C)(C)N1CCN(C)CC1 [AV-412 (free base)],kinase-Nluc reporter destabilization hit call,STK38; 2.5 µM,inactive: 0
same,kinase-Nluc reporter destabilization hit call,SYK; 2.5 µM,inactive: 0
same,kinase-Nluc reporter destabilization hit call,TEC; 2.5 µM,inactive: 0
same,kinase-Nluc reporter destabilization hit call,TYK2; 2.5 µM,inactive: 0
same,kinase-Nluc reporter destabilization hit call,ULK3; 2.5 µM,inactive: 0
same,kinase-Nluc reporter destabilization hit call,YES1; 2.5 µM,inactive: 0
same,kinase-Nluc reporter destabilization hit call,ZAK; 2.5 µM,inactive: 0
same,kinase-Nluc reporter destabilization hit call,ZAP70; 2.5 µM,inactive: 0
same,number of time points,CDK4; 2.5 µM,0
same,number of time points,CDK7; 2.5 µM,2
same,number of time points,CDK9; 2.5 µM,1

# Part of the list above, as tab-separated lines:
smiles	measurement	setting	value
Cc1cccc(-c2[nH]c(CNc3ccccc3F)nc2-c2ccc3ncnn3c2)n1 [Vactosertib]	number of time points	CDK7; 2.5 µM	0
CNC(=O)c1ccc(Nc2ncc(C(F)(F)F)c(NCc3nccnc3N(C)S(C)(=O)=O)n2)cc1 [Defactinib]	kinase-Nluc reporter destabilization hit call	STK38; 10 µM	inactive: 0
CC(=O)c1c(C)c2cnc(Nc3ccc(N4CCNCC4)cn3)nc2n(C2CCCC2)c1=O [Palbociclib (isethionate)]	kinase-Nluc reporter destabilization hit call	ULK3; 10 µM	inactive: 0
Cn1ncc(Cl)c1-c1cc(C(=O)N[C@H](CN)Cc2cccc(F)c2)sc1Cl [Afuresertib (hydrochloride)]	number of time points	CDK4; 10 µM	0
C=CC(=O)Nc1cc2c(Nc3ccc(F)c(Cl)c3)ncnc2cc1C#CC(C)(C)N1CCN(C)CC1 [AV-412 (free base)]	kinase-Nluc reporter destabilization hit call	ZAK; 2.5 µM	inactive: 0

# 2 records picked at random from the list so far, as already listed:
smiles,measurement,setting,value
CN1CCCN(C(=O)c2cccc(-c3ccc(/C=C4/C(=O)Nc5ccc(Cl)cc54)o3)c2)CC1,kinase-Nluc reporter destabilization hit call,TYK2; 2.5 µM,inactive: 0
C=CC(=O)Nc1cc2c(Nc3ccc(F)c(Cl)c3)ncnc2cc1C#CC(C)(C)N1CCN(C)CC1 [AV-412 (free base)],kinase-Nluc reporter destabilization hit call,TEC; 2.5 µM,inactive: 0
